These results are taken from PubChem BioAssay AID330 (DTP/NCI, 2004).

The test system of the experiment is P388 leukemia ip, CD2F1 mice, survival T/C. The experiment can be described thus: NCI In Vivo Anticancer Drug Screen. Data for tumor model P388 Leukemia (intraperitoneal) in CD2F1 (CDF1) mice. The conditions noted are these: T/C endpoint: median survival time, higher T/C = longer survival.
The mark [1] stands for this setting: dose: 100.0 mg/kg/injection, schedule: Q01DX005 (ip), vehicle: saline with Tween-80.
Where [2] appears, read: dose: 200.0 mg/kg/injection, schedule: Q01DX005 (ip), vehicle: saline with Tween-80.
The mark [3] stands for this setting: dose: 400.0 mg/kg/injection, schedule: Q01DX009 (ip), vehicle: saline.
Setting [4] is: dose: 25.0 mg/kg/injection, schedule: Q01DX009 (ip), vehicle: saline.
Setting [5] is: dose: 100.0 mg/kg/injection, schedule: Q01DX009 (ip), vehicle: saline.
The mark [6] stands for this setting: dose: 200.0 mg/kg/injection, schedule: Q01DX005 (ip), vehicle: saline.

The list does not hold the whole screen: it gathers tests that were run many times, whatever their T/C, doses with no T/C, and many T/C values between a quarter and a half above the control. Other doses and runs of a compound stand elsewhere. T/C is the treated group as % of the vehicle group. Some entries give survivors of the animals treated and no T/C: the source files T/C as zero there, which appears to mark a toxic dose or a test without result, not a measured value. Some doses without a T/C left all or most animals alive at the check, yet need not have been tolerated: survival well below the control is almost never listed, so the zero probably covers shortened survival too. Counts of survivors are from the toxicity check (mostly the fifth day) where no day follows; animals may have died later. Schedules are NCI's codes, taken here to give the interval after Q, in days (D) or hours (H), and the number of doses after X. Some doses were run more than once; the results are listed from low to high. Where survival is the endpoint, the PubChem record calls one and a half times the control and up active, and a quarter to a half above the control has no call in these data; cut-offs in other NCI protocols can differ. Some T/C values are followed by the survivors on the day toxicity was checked, most often the fifth; where none is given, no animal had died by that day.

With `O=C(NCc1cc(CNC(=O)c2cccc(O)c2O)cc(CNC(=O)c2cccc(O)c2O)c1)c1cccc(O)c1O`, the survivor count under setting [1] is 4 of 5 and the survivor count under setting [2] is 0 of 5.

Regarding `Cc1cccc(Cl)c1NC(=O)CN(C)CCN1CCCC1`, the survivor count (dose: 240.0 mg/kg/injection, schedule: Q01DX005 (ip), vehicle: saline) was 0 of 6.

In the case of `CCN(CC)CCCC(C)NCC#CCNC(C)CCCN(CC)CC` (stereo unspecified), the survivor count is, setting by setting: (dose: 25.0 mg/kg/injection, schedule: Q01DX009 (ip), vehicle: water) 1 of 6 and 3 of 6; (dose: 50.0 mg/kg/injection, schedule: Q01DX009 (ip), vehicle: water) 0 of 6; (dose: 100.0 mg/kg/injection, schedule: Q01DX009 (ip), vehicle: water) 0 of 6; (dose: 200.0 mg/kg/injection, schedule: Q01DX009 (ip), vehicle: water) 0 of 6; (dose: 400.0 mg/kg/injection, schedule: Q01DX009 (ip), vehicle: water) 0 of 6.

In the case of `O=[N+]([O-])c1ccc(NCc2ccccc2)nc1`, the survivor count (dose: 400.0 mg/kg/injection, schedule: Q01DX009 (ip), vehicle: saline with Tween-80) is 2 of 6.

For the molecule `NC1[N-]C(C2CCCC[N-]2)CC2C(Cl)CCCC12.O=[N+]([O-])O.O=[N+]([O-])O.[Cu+2]` (stereo unspecified), the survivor count is, setting by setting: (dose: 25.0 mg/kg/injection, schedule: Q04DX002 (ip), vehicle: suspension in saline) 1 of 6; (dose: 100.0 mg/kg/injection, schedule: Q04DX002 (ip), vehicle: suspension in saline) 0 of 6; (dose: 200.0 mg/kg/injection, schedule: Q04DX002 (ip), vehicle: suspension in saline) 0 of 6; (dose: 400.0 mg/kg/injection, schedule: Q04DX002 (ip), vehicle: suspension in saline) 0 of 6.

Consider `COc1ccc(C2OC3=C(Nc4ccc(Cl)cc4N3)C2=O)cc1` (stereo unspecified), for which the survivor count (dose: 60.0 mg/kg/injection, schedule: Q01DX005 (ip), vehicle: Klucel (hydroxypropylcellulose) (HPC)) is reported as 6 of 6.

Take `CC(=O)CC(C)=O.CCN(CC)CC[C-]=O.[Pd+2]`: the survivor count is, setting by setting: (dose: 50.0 mg/kg/injection, schedule: Q04DX003 (ip), vehicle: other) 0 of 4; (dose: 100.0 mg/kg/injection, schedule: Q04DX003 (ip), vehicle: other) 0 of 4; (dose: 200.0 mg/kg/injection, schedule: Q04DX003 (ip), vehicle: other) 0 of 4.

Regarding `C=C(C)C(=O)OC1CC2(C)OC(=CC2=O)C(C)CC2OC(=O)C(=C)C12` (stereo unspecified), the survivor count (dose: 100.0 mg/kg/injection, schedule: Q01DX001 (ip), vehicle: saline with Tween-80) is 2 of 6.

Regarding `CC(NCCO)C(O)c1ccccc1` (stereo unspecified), the survivor count under setting [3] was 3 of 6.

Regarding `C=C1C(=O)OC2/C=C(\CO)C(OC(C)=O)CC(O)/C(C)=C/C(OC(=O)C(C)CC)C12` (stereo unspecified), the T/C (dose: 25.0 mg/kg/injection, schedule: Q01DX009 (ip), vehicle: Klucel (hydroxypropylcellulose) (HPC)) was 134 and 140 % of control; the T/C (dose: 50.0 mg/kg/injection, schedule: Q01DX009 (ip), vehicle: Klucel (hydroxypropylcellulose) (HPC)) was 128 and 141 % of control; the T/C (dose: 100.0 mg/kg/injection, schedule: Q01DX009 (ip), vehicle: Klucel (hydroxypropylcellulose) (HPC)) is 127 % of control. Also, the survivor count (dose: 200.0 mg/kg/injection, schedule: Q01DX009 (ip), vehicle: Klucel (hydroxypropylcellulose) (HPC)) is 6 of 6.

Take `CCC1OCC(C(Cl)CCl)O1` (stereo unspecified): the survivor count (dose: 400.0 mg/kg/injection, schedule: Q01DX005 (ip), vehicle: saline with Tween-80) is recorded as 0 of 6.

As to `C/C(=C/c1ccccc1)C(=O)C1C(c2ccccc2)CC(O)C(C)C1c1ccccc1` (stereo unspecified), the survivor count (dose: 400.0 mg/kg/injection, schedule: Q04DX003 (ip), vehicle: Klucel (hydroxypropylcellulose) (HPC)) is given as 6 of 6.

With `O=C1C=CC(=O)O1` (tested in a mixture with another compound), the T/C is, setting by setting: (dose: 12.5 mg/kg/injection, schedule: Q01DX009 (ip), vehicle: saline) 131 % of control; under setting [4], 135 and 147 % of control; (dose: 50.0 mg/kg/injection, schedule: Q01DX009 (ip), vehicle: saline) 131 and 145 % of control; (dose: 50.0 mg/kg/injection, schedule: Q04DX003 (ip), vehicle: saline) 130 % of control; (dose: 75.0 mg/kg/injection, schedule: Q01DX009 (ip), vehicle: saline) 140 % of control; under setting [5], 137, 138, 148 % of control. In addition, the T/C is 140 % of control (dose: 100.0 mg/kg/injection, schedule: Q04DX003 (ip), vehicle: saline); 138 % of control (dose: 200.0 mg/kg/injection, schedule: Q01DX009 (ip), vehicle: saline); 132 [5 of 6 alive] and 135 % of control under setting [3]. The survivor count (dose: 300.0 mg/kg/injection, schedule: Q01DX009 (ip), vehicle: saline) was 1 of 6 and the survivor count under setting [3] is on record as 2 of 6.

On to `OC1OCCOC1O` (stereo unspecified), for which the T/C was 126 % of control (dose: 44.0 mg/kg/injection, schedule: Q01DX009 (ip), vehicle: saline); 128 % of control (dose: 66.0 mg/kg/injection, schedule: Q01DX009 (ip), vehicle: saline); 133 % of control under setting [5]; 137 % of control (dose: 150.0 mg/kg/injection, schedule: Q01DX009 (ip), vehicle: saline).

In the case of `Cc1ccc(C(=Nc2ccccc2)N=P(c2ccccc2)(c2ccccc2)c2ccccc2)cc1`, the T/C under setting [1] was 125 % of control. Further, the survivor count under setting [2] is 4 of 6 and 6 of 6.

As to `CC(C)(C)c1ccc(S(=O)(=O)C[CH2][Sn]([CH3])([CH3])[CH3])cc1`, the survivor count is recorded as 1 of 6 under setting [4]; 0 of 6 (dose: 50.0 mg/kg/injection, schedule: Q01DX009 (ip), vehicle: suspension in saline); 0 of 6 (dose: 100.0 mg/kg/injection, schedule: Q01DX009 (ip), vehicle: suspension in saline); 0 of 6 (dose: 200.0 mg/kg/injection, schedule: Q01DX009 (ip), vehicle: suspension in saline).

With `CCN(CC)CCCC(C)N=C(Nc1ccccc1)c1ccc(Cl)cc1` (stereo unspecified), the survivor count under setting [6] was 1 of 5.

In the case of `COc1nc2c(nc(N)n2C2OC(COC(C)=O)C(OC(C)=O)C(OC(C)=O)C2OC(C)=O)c(=O)n1C` (stereo unspecified), the survivor count (dose: 120.0 mg/kg/injection, schedule: Q01DX005 (ip), vehicle: saline) is on record as 5 of 6.

On to `CC[N+](C)(C)c1nc(N(C)C)nc(N(C)C)n1`, for which the survivor count is on record as 0 of 6 (dose: 25.0 mg/kg/injection, schedule: Q01DX005 (ip), vehicle: saline); 0 of 6 (dose: 50.0 mg/kg/injection, schedule: Q01DX005 (ip), vehicle: saline); 0 of 6 (dose: 100.0 mg/kg/injection, schedule: Q01DX005 (ip), vehicle: saline); 0 of 6 under setting [6].

With `CC(C)(C)/C=C/N=NNc1ccccc1C(=O)NC(C)(C)C`, the survivor count is listed as 6 of 6 (dose: 120.0 mg/kg/injection, schedule: Q01DX005 (ip), vehicle: Klucel + Tween-80) and 6 of 6 (dose: 240.0 mg/kg/injection, schedule: Q01DX005 (ip), vehicle: Klucel + Tween-80).

Consider `Nc1nc2nc(N)[nH]c2c(=O)[nH]1`, for which, under setting [1], the T/C was 128 and 148 % of control; the survivor count is on record as 3 of 6. Also, the survivor count under setting [2] is given as 6 of 6.

Consider `CCC(Cl)C#N` (stereo unspecified), for which the survivor count is 0 of 6 (dose: 30.0 mg/kg/injection, schedule: Q01DX005 (ip), vehicle: saline with Tween-80); 0 of 6 (dose: 60.0 mg/kg/injection, schedule: Q01DX005 (ip), vehicle: saline with Tween-80); 0 of 6 (dose: 120.0 mg/kg/injection, schedule: Q01DX005 (ip), vehicle: saline with Tween-80); 0 of 6 (dose: 240.0 mg/kg/injection, schedule: Q01DX005 (ip), vehicle: saline with Tween-80).
